According to patent publication US11970475B1, “4-(1-(2-Hydroxypropyl)-4,5-diphenyl-1H-imidazol-2-yl)pyridin-3-ol as an antimicrobial compound” (KING FAISAL UNIVERSITY, priority 2023, dated 2024):
At least one compound was matched to its structure with a doubt left.

Experiments:
[1] = tested on: St. Aereus; test: Anti-microbial screening, agar dilution, St. Aereus; format: cell-based, Staphylococcus aureus
Method: (§1) The antibacterial properties of the present compound were studied by the method of agar dilution. Test solutions of the compound were prepared in a concentration of 1% using dimethylformamide as a solvent then they are diluted in physiological solution to obtain the final experimental dilutions 1:100, 1:200, 1:400, and 1:800. The effect of these substances were compared with furacillin in a controllable study. The testing microbes used were gram positive bacteria St. Aereus, gram negative bacteria E. Coli, Ps. aeruginosa and Candida albicans fungi were taken. The experiments used for this survey were meat-pentonlu agar (EPA) for cultivation of bacteria and Saburo environment for fungi. Each experiment used 1 ml of test solution on each plate 500 min. Add 2 drops of emulsified with microbes feel. All experimental samples were taken from the agar after 10, 20, 40, and 60 minutes in the environment on the basis of Patrk planted. Bacteria were cultivated at a temperature of 37° C. for 1 day and the mushroom was kept in a thermostat for […] at a temperature of 28° C. Then results were checked.

[2] = tested on: E. Coli; test: Anti-microbial screening, agar dilution, E. Coli; format: cell-based, Escherichia coli
Method: as §1

[3] = tested on: Ps. aeruginosa; test: Anti-microbial screening, agar dilution, Ps. aeruginosa; format: cell-based, Pseudomonas aeruginosa
Method: as §1

[4] = tested on: Candida albicans; test: Anti-microbial screening, agar dilution, Candida albicans; format: cell-based
Method: as §1

[5] = dilution rate 1:100, exposure time 10 min
[6] = dilution rate 1:100, exposure time 20 min
[7] = dilution rate 1:100, exposure time 40 min
[8] = dilution rate 1:100, exposure time 60 min
[9] = dilution rate 1:200, exposure time 10 min
[10] = dilution rate 1:200, exposure time 20 min
[11] = dilution rate 1:200, exposure time 40 min
[12] = dilution rate 1:200, exposure time 60 min
[13] = dilution rate 1:400, exposure time 10 min
[14] = dilution rate 1:400, exposure time 20 min
[15] = dilution rate 1:400, exposure time 40 min
[16] = dilution rate 1:400, exposure time 60 min
[17] = dilution rate 1:800, exposure time 10 min
[18] = dilution rate 1:800, exposure time 20 min
[19] = dilution rate 1:800, exposure time 40 min
[20] = dilution rate 1:800, exposure time 60 min

NC(=O)N/N=C/c1ccc([N+](=O)[O-])o1 [Furacilin]
antimicrobial activity (+/−) [1, 5]: −
antimicrobial activity (+/−) [1, 6]: −
antimicrobial activity (+/−) [1, 7]: −
antimicrobial activity (+/−) [1, 8]: −
antimicrobial activity (+/−) [1, 9]: +
antimicrobial activity (+/−) [1, 10]: +
antimicrobial activity (+/−) [1, 11]: +
antimicrobial activity (+/−) [1, 12]: +
antimicrobial activity (+/−) [1, 13]: +
antimicrobial activity (+/−) [1, 14]: +
antimicrobial activity (+/−) [1, 15]: +
antimicrobial activity (+/−) [1, 16]: +
antimicrobial activity (+/−) [1, 17]: +
antimicrobial activity (+/−) [1, 18]: +
antimicrobial activity (+/−) [1, 19]: +
antimicrobial activity (+/−) [1, 20]: +
antimicrobial activity (+/−) [2, 5]: −
antimicrobial activity (+/−) [2, 6]: −
antimicrobial activity (+/−) [2, 7]: −
antimicrobial activity (+/−) [2, 8]: −
antimicrobial activity (+/−) [2, 9]: +
antimicrobial activity (+/−) [2, 10]: +
antimicrobial activity (+/−) [2, 11]: +
antimicrobial activity (+/−) [2, 12]: +
antimicrobial activity (+/−) [2, 13]: +
antimicrobial activity (+/−) [2, 14]: +
antimicrobial activity (+/−) [2, 15]: +
antimicrobial activity (+/−) [2, 16]: +
antimicrobial activity (+/−) [2, 17]: +
antimicrobial activity (+/−) [2, 18]: +
antimicrobial activity (+/−) [2, 19]: +
antimicrobial activity (+/−) [2, 20]: +
antimicrobial activity (+/−) [3, 5]: +
antimicrobial activity (+/−) [3, 6]: +
antimicrobial activity (+/−) [3, 7]: +
antimicrobial activity (+/−) [3, 8]: +
antimicrobial activity (+/−) [3, 9]: +
antimicrobial activity (+/−) [3, 10]: +
antimicrobial activity (+/−) [3, 11]: +
antimicrobial activity (+/−) [3, 12]: +
antimicrobial activity (+/−) [3, 13]: +
antimicrobial activity (+/−) [3, 14]: +
antimicrobial activity (+/−) [3, 15]: +
antimicrobial activity (+/−) [3, 16]: +
antimicrobial activity (+/−) [3, 17]: +
antimicrobial activity (+/−) [3, 18]: +
antimicrobial activity (+/−) [3, 19]: +
antimicrobial activity (+/−) [3, 20]: +
antimicrobial activity (+/−) [4, 5]: −
antimicrobial activity (+/−) [4, 6]: −
antimicrobial activity (+/−) [4, 7]: +
antimicrobial activity (+/−) [4, 8]: +
antimicrobial activity (+/−) [4, 9]: +
antimicrobial activity (+/−) [4, 10]: +
antimicrobial activity (+/−) [4, 11]: +
antimicrobial activity (+/−) [4, 12]: +
antimicrobial activity (+/−) [4, 13]: +
antimicrobial activity (+/−) [4, 14]: +
antimicrobial activity (+/−) [4, 15]: +
antimicrobial activity (+/−) [4, 16]: +
antimicrobial activity (+/−) [4, 17]: +
antimicrobial activity (+/−) [4, 18]: +
antimicrobial activity (+/−) [4, 19]: +
antimicrobial activity (+/−) [4, 20]: +
